According to patent US11351229B2, “Combination therapies for treating infantile spasms and other treatment resistant epilepsies” (Baylor College of Medicine, priority 2017, dated 2022):
Read-outs that look alike come from different tables or passages of the source. Not every detail of the peptide structures is certain; ends, links or a residue may be inferred.

Tested on: epileptic spasms (TTX rat model of infantile spasms)
Type: in vivo
[1] = each drug alone: VGB 250 mg/kg/day or (1-3)IGF-1 10 mg/kg/day, 2 weeks

## NCC(=O)N1CCC[C@H]1C(=O)N[C@@H](CCC(=O)O)C(=O)O [(1-3)IGF-1, Gly-Pro-Glu]
(1-3)IGF-1 10 mg/kg/day, 3 weeks, 8 rats
  spasm frequency normalized to baseline: approximately 30 % of baseline levels
(1-3)IGF-1 10 mg/kg/day, 3 weeks, vs control rats
  spasm frequency (in words): gradual and marked reduction in spasm frequency
(1-3)IGF-1 10 mg/kg/day, 3 weeks, all control rats continued to have spasms
  rats that became free of spasms: 5 of 8
[1]
  effect on spasm counts (in words): modest effects on spasm counts
  presence of spasms after treatment, all rats: continued to have spasms
Individual administration: vigabatrin 125 mg/kg/day or (1-3)IGF-1 20 mg/kg/day, 2 weeks
  effect on % animals with spasms: no measurable effect
Individual administration: vigabatrin 250 mg/kg/day or (1-3)IGF-1 10 mg/kg/day, 2 weeks
  effect on % animals with spasms: no measurable effect
